Values from PubChem BioAssay AID1259425 (University of Nebraska Medical Center, 2018).

Screen: 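Seek colon cancer weak points whose silencing resembles KSR1 loss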 (primary screen)
Cells: HCT116 human colon cancer cells
Knock-down reagent: siRNA pool against human genes, 50 nM siRNA
Read-out: 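mRNA of six signature genes measured together by branched-DNA assay after 50 nM siRNA pool, blank removed, divided by geometric mean of two housekeeping genes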
Reading the numbers: BNIP3L mRNA: higher = more BNIP3L transcript after knockdown; NDRG1 mRNA: higher = more NDRG1 transcript after knockdown
Here is an unselected part of about 14,000 reagents tested. Further read-outs or replicates are left out here. No sequences are given here. Not given: the time to read-out.

PSMD11 | BNIP3L mRNA, set 1: 0.154; NDRG1 mRNA, set 1: 0.767
YARS1 | BNIP3L mRNA, set 1: 0.0909; NDRG1 mRNA, set 1: 0.217
GAS8-AS1 | BNIP3L mRNA, set 1: 0.135; NDRG1 mRNA, set 1: 0.25
HCAR3 | BNIP3L mRNA, set 1: 0.197; NDRG1 mRNA, set 1: 0.205
CWH43 | BNIP3L mRNA, set 1: 0.124; NDRG1 mRNA, set 1: 0.169
STX6 | BNIP3L mRNA, set 1: 0.212; NDRG1 mRNA, set 1: 0.398
SUCO | BNIP3L mRNA, set 1: 0.119; NDRG1 mRNA, set 1: 0.259
RAB8A | BNIP3L mRNA, set 1: 0.0299; NDRG1 mRNA, set 1: 0.194
PODNL1 | BNIP3L mRNA, set 1: 0.131; NDRG1 mRNA, set 1: 0.217
TAF1B | BNIP3L mRNA, set 1: 0.0995; NDRG1 mRNA, set 1: 0.18
ZNF322 | BNIP3L mRNA, set 1: 0.389; NDRG1 mRNA, set 1: 0.303

4 entries from above, set out differently.
target gene,"BNIP3L mRNA, set 1","NDRG1 mRNA, set 1"
PSMD11,0.154,0.767
YARS1,0.0909,0.217
GAS8-AS1,0.135,0.25
HCAR3,0.197,0.205

The list goes on:
SSTR1 | BNIP3L mRNA, set 1: 0.132; NDRG1 mRNA, set 1: 0.301
INTS11 | BNIP3L mRNA, set 1: 0.0824; NDRG1 mRNA, set 1: 0.263
ZMAT3 | BNIP3L mRNA, set 1: 0.0742; NDRG1 mRNA, set 1: 0.0337
LHFPL2 | BNIP3L mRNA, set 1: 0.116; NDRG1 mRNA, set 1: 0.189
TEK | BNIP3L mRNA, set 1: 0.0995; NDRG1 mRNA, set 1: 0.521
CABS1 | BNIP3L mRNA, set 1: 0.14; NDRG1 mRNA, set 1: 0.51
CLCN6 | BNIP3L mRNA, set 1: 0.0742; NDRG1 mRNA, set 1: 0.112
CARD11 | BNIP3L mRNA, set 1: 0.199; NDRG1 mRNA, set 1: 0.165
DONSON | BNIP3L mRNA, set 1: 0.239; NDRG1 mRNA, set 1: 0.809
FLOT2 | BNIP3L mRNA, set 1: 0.0875; NDRG1 mRNA, set 1: 0.407
PRKAR2B | BNIP3L mRNA, set 1: 0.123; NDRG1 mRNA, set 1: 0.236
STOX2 | BNIP3L mRNA, set 1: 0.0903; NDRG1 mRNA, set 1: 0.115
ADGRF5 | BNIP3L mRNA, set 1: 0.0983; NDRG1 mRNA, set 1: 0.11
SRPK1 | BNIP3L mRNA, set 1: 0.246; NDRG1 mRNA, set 1: 0.266
PRH2 | BNIP3L mRNA, set 1: 0.176; NDRG1 mRNA, set 1: 0.148
DHFRP3 | BNIP3L mRNA, set 1: 0.102; NDRG1 mRNA, set 1: 0.204
ALOX5 | BNIP3L mRNA, set 1: 0.0841; NDRG1 mRNA, set 1: 0.4
